{
  "source": "patent US20240100083A1",
  "about": "“IMMUNOTHERAPY FOR CANCER” (THE PROVOST, FELLOWS, FOUNDATION SCHOLARS, AND THE OTHER …, priority 2020, published 2024)",
  "test_system": "BMDCs",
  "assay": "depletion of mitochondrial DNA in BMDCs (qPCR)",
  "type": "cell-based, mice",
  "details": "low dose (150 ng/mL) from day 6",
  "note": "At least one structure is not confirmed: it was looked up by name or label, or the drawing left a doubt.",
  "data": [
    {"smiles": "CC[n+]1c(-c2ccccc2)c2cc(N)ccc2c2ccc(N)cc21", "note": "[ethidium bromide]", "values": [
      {"measurement": "mtDNA depletion in BMDCs", "value": "depletes mtDNA"}
    ]}
  ]
}
